Experimental data: publication PMC9668932
Results are given in words; binding and its absence hold for the method and conditions named. For some of these results: In cells and extracts the contact can be indirect. Some entries that bind do so weakly or less than the wild type.

Protein sequences, listed by entry. Tags and fused reporters are not part of them. Lines headed by an entry give the natural chain unless they say otherwise; changes in a name come on top. Chains listed by the source or under a name are the forms on record and can include a tag or linker. Residues count along the entry.
human aryl hydrocarbon receptor, residues 1-437 (P35869, residues 1-437): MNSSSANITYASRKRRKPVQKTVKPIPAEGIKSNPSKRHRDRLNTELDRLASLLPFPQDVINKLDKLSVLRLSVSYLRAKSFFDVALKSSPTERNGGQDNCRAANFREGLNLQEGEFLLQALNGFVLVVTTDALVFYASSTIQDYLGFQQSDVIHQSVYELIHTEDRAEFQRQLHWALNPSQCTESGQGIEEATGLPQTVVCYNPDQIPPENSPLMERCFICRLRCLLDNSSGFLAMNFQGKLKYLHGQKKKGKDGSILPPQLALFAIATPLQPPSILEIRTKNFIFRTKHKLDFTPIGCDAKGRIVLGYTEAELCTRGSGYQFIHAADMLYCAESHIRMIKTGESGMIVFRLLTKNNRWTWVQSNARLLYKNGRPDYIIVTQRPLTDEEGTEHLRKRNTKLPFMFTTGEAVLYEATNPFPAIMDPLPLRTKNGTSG
Twin Strep-tag-MBP-TEV site-AHR_(1-437) F404A (P35869, form named): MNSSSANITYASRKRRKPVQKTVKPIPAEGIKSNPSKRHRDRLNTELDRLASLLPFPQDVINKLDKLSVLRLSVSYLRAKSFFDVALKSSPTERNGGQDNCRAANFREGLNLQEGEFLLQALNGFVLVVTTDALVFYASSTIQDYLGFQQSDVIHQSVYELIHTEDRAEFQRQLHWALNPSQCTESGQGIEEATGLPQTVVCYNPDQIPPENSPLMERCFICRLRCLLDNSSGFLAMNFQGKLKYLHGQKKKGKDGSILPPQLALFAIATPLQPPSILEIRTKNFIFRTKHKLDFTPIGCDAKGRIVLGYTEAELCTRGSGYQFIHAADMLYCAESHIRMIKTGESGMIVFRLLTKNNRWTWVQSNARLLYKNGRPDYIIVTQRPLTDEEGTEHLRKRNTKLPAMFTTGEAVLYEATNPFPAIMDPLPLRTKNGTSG
Twin Strep-tag-MBP-TEV site-AHR_(1-437) F406A (P35869, form named): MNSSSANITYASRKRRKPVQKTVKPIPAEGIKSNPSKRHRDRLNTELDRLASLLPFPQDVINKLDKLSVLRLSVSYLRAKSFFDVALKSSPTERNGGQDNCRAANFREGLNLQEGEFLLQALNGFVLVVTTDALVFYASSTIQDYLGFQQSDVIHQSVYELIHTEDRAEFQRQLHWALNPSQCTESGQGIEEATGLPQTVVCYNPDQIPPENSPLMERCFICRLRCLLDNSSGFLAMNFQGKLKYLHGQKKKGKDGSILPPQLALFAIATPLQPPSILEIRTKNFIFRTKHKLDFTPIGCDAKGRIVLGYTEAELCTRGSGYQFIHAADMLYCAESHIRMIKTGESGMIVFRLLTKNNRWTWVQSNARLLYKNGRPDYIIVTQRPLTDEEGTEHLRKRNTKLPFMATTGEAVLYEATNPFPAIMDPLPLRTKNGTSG
Twin Strep-tag-MBP-TEV site-AHR_(1-437) I277A (P35869, form named): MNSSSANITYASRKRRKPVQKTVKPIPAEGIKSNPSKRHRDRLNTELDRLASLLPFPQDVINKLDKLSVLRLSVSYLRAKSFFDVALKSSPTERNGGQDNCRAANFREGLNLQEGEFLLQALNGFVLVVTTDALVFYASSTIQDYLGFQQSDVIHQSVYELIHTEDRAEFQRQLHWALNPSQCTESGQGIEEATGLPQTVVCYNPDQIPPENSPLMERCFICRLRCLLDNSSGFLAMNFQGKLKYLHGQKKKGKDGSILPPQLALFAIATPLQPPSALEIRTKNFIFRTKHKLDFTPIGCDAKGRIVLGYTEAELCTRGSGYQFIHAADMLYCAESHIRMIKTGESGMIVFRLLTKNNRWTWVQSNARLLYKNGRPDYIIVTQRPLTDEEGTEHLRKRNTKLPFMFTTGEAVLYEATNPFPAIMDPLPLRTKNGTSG
Twin Strep-tag-MBP-TEV site-AHR_(1-437) I280A (P35869, form named): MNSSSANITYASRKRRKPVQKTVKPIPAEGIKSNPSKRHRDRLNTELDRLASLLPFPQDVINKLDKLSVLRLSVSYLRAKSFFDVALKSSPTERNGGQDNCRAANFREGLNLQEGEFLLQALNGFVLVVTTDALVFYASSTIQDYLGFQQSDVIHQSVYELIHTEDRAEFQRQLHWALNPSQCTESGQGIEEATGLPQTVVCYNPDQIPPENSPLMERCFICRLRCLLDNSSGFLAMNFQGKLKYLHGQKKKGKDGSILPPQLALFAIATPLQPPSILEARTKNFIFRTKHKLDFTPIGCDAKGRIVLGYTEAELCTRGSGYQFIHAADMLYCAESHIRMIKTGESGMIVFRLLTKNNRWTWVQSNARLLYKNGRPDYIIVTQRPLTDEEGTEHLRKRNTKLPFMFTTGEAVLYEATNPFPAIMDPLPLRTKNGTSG
Twin Strep-tag-MBP-TEV site-AHR_(1-437) P275A (P35869, form named): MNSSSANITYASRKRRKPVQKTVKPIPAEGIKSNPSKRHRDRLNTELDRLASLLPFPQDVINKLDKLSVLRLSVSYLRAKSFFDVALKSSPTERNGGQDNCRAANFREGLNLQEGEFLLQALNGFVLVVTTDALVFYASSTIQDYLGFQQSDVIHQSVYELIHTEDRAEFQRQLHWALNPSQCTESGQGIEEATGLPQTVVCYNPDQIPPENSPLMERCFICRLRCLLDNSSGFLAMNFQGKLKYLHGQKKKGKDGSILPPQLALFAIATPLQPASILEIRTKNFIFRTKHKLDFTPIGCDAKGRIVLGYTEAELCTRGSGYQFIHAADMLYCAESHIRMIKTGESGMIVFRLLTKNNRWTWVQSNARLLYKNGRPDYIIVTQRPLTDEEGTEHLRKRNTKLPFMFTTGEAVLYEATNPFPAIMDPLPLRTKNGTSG
Twin Strep-tag-MBP-TEV site-AHR_(1-437) R281A (P35869, form named): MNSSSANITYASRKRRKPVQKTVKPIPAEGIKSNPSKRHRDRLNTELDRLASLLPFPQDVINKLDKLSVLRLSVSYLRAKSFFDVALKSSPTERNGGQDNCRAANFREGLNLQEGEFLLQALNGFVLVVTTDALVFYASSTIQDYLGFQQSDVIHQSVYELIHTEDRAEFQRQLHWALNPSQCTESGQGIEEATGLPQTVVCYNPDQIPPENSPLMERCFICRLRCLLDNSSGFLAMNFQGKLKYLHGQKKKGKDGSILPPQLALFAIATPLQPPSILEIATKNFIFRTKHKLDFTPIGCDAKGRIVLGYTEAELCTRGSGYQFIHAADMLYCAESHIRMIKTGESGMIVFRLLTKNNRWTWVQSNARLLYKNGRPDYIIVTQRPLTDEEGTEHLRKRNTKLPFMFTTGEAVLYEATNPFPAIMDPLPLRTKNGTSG
Twin Strep-tag-MBP-TEV site-AHR_(1-437) S276A (P35869, form named): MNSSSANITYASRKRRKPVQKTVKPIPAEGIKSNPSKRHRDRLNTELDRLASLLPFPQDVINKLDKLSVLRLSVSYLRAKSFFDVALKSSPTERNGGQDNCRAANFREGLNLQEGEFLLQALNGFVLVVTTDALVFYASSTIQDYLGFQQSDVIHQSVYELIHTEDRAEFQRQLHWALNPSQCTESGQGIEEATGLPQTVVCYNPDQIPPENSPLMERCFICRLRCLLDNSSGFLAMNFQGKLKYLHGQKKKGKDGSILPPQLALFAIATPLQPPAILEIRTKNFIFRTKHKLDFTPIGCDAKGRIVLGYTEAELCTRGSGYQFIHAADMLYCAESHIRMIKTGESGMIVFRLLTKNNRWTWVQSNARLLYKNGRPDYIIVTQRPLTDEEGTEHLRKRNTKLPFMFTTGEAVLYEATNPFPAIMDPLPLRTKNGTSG
Twin Strep-tag-MBP-TEV site-AHR_(1-437) T282A (P35869, form named): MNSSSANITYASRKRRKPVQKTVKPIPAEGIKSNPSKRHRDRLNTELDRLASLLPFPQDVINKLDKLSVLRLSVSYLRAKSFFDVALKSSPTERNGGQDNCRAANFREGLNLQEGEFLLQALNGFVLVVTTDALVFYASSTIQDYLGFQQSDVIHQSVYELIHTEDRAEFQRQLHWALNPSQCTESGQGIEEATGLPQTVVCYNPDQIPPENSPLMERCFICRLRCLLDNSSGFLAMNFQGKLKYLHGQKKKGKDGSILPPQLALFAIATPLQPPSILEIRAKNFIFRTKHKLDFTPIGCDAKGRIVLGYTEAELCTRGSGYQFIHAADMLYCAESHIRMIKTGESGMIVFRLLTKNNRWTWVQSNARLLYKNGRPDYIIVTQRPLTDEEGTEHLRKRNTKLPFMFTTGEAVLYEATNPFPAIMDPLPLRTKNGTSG
Twin Strep-tag-MBP-TEV site-AHR_(1-437) Y414A (P35869, form named): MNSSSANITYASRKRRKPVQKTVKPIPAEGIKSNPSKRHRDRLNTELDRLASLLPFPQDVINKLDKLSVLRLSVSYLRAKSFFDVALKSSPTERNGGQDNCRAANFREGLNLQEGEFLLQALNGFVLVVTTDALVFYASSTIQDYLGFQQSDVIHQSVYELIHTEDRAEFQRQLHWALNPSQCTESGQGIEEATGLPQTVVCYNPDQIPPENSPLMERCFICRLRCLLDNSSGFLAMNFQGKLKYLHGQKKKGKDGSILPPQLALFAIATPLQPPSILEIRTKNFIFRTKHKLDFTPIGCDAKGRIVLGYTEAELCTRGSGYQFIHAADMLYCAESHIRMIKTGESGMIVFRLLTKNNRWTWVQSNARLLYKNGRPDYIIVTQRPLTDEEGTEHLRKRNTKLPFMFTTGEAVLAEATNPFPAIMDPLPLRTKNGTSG
Twin Strep-tag-MBP-TEV site-AHR_(1-437), residue 278 to alanine (P35869, form named): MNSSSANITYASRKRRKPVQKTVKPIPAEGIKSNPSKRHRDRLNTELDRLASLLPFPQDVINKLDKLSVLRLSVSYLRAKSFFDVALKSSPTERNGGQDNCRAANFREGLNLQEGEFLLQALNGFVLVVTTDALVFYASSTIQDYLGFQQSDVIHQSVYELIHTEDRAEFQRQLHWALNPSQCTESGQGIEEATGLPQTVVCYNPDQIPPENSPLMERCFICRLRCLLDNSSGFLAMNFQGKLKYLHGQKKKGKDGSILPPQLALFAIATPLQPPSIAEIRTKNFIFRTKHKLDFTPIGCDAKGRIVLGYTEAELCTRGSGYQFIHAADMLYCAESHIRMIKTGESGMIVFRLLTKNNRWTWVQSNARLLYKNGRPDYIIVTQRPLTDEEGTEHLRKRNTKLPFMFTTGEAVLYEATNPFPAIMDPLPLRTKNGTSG
Twin Strep-tag-MBP-TEV site-AHR_(1-437), residue 279 to alanine (P35869, form named): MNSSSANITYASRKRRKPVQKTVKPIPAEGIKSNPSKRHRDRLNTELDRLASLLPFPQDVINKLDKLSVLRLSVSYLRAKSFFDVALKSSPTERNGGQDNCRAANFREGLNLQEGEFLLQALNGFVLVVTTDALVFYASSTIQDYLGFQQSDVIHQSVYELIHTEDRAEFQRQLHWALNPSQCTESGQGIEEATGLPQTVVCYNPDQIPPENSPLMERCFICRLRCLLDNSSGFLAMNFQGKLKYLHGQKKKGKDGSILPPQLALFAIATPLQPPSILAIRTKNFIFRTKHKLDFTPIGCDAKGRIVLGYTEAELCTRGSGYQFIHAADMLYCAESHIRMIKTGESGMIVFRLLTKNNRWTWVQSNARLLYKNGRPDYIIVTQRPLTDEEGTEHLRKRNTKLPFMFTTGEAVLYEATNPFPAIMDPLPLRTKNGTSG
UniProt P08238: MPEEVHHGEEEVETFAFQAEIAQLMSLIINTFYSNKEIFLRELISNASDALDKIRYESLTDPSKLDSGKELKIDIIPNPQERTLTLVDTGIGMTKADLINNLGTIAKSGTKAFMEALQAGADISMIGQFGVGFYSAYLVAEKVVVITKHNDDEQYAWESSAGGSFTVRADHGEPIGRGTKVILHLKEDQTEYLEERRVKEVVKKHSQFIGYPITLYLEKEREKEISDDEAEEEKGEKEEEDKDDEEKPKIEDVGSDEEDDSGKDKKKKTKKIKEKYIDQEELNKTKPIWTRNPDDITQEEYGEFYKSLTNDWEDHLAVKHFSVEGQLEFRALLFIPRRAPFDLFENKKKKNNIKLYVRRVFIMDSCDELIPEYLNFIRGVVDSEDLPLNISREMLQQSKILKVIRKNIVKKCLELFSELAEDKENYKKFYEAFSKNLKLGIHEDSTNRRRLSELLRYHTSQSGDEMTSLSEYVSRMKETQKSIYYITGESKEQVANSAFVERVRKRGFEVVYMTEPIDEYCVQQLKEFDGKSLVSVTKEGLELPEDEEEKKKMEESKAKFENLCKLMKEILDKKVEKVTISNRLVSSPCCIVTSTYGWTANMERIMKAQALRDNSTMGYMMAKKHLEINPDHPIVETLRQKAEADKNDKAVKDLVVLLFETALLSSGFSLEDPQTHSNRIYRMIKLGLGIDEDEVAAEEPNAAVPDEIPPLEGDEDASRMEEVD

Key:
[1] = target: Twin Strep-tag-MBP-TEV site-AHR_(1-437) (human) (UniProt P35869); experiment: co-IP; HEK293F co-transfected with Twin Strep-MBP-AHR(1-437), His10-FLAG-Hsp90 and Myc-XAP2; cleared lysate on anti-MBP magnetic beads, 1 h on ice; 20 mM Bis-Tris-HCl pH 7.0, 10 mM KCl, 10 mM MgCl2, 20 mM Na2MoO4, 2 mM BME; Western blot with anti-tag antibodies
[2] = target: Twin Strep-tag-MBP-TEV site-AHR_(1-437) F404A (human) (UniProt P35869); experiment: as above
[3] = target: Twin Strep-tag-MBP-TEV site-AHR_(1-437) F406A (human) (UniProt P35869); experiment: as above
[4] = target: Twin Strep-tag-MBP-TEV site-AHR_(1-437) I277A (human) (UniProt P35869); experiment: as above
[5] = target: Twin Strep-tag-MBP-TEV site-AHR_(1-437) I280A (human) (UniProt P35869); experiment: as above
[6] = target: Twin Strep-tag-MBP-TEV site-AHR_(1-437) P275A (human) (UniProt P35869); experiment: as above
[7] = target: Twin Strep-tag-MBP-TEV site-AHR_(1-437) R281A (human) (UniProt P35869); experiment: as above
[8] = target: Twin Strep-tag-MBP-TEV site-AHR_(1-437) S276A (human) (UniProt P35869); experiment: as above
[9] = target: Twin Strep-tag-MBP-TEV site-AHR_(1-437) T282A (human) (UniProt P35869); experiment: as above
[10] = target: Twin Strep-tag-MBP-TEV site-AHR_(1-437) Y414A (human) (UniProt P35869); experiment: as above
[11] = target: Twin Strep-tag-MBP-TEV site-AHR_(1-437), residue 278 to alanine (human) (UniProt P35869); experiment: as above
[12] = target: Twin Strep-tag-MBP-TEV site-AHR_(1-437), residue 279 to alanine (human) (UniProt P35869); experiment: as above
[13] = target: human aryl hydrocarbon receptor, residues 1-437 (human) (UniProt P35869); experiment: cryo-EM structure; ternary Hsp90-XAP2-AHR complex, co-expressed in Sf9 and co-purified, with indirubin at 5x molar excess; 20 mM Bis-Tris-HCl pH 7.0, 50 mM NaCl, 10 mM KCl, 10 mM MgCl2, 20 mM Na2MoO4, 2 mM BME; global map 2.85 Å, focused map 4.07 Å; both purified

Row | binding [1] | binding [2] | binding [3] | binding [4] | binding [5] | binding [6] | binding [7] | binding [8] | binding [9] | binding [10] | binding [11] | binding [12] | binding [13] | Substance
1 | binds | binds | binds | binds | binds | binds | binds | binds | binds | binds | binds | binds | – | His10-tag-FLAG-tag-TEV site-Hsp90_(1-724) (from UniProt P08238 1-724)
2 | – | – | – | – | – | – | – | – | – | – | – | – | binds | heat shock protein HSP 90-beta, full length, His6-tagged (from UniProt P08238 1-724)
